Reference: PubChem BioAssay AID1224828 (NIAID, 2016)
The whole screen tested about 17,000 reagents; shown is a random part of them. 762 of them (4.5%) count as active. 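Active calls include both raised and lowered p65 entry, mostly lowered; wells with fewer than 50 cells lack a z-score.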 Raw values are not corrected between plates. The numbers tell different reagents against one gene apart. No sequences are given here.

Purpose: 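Regulators linking TLR4 signalling to p65 nuclear translocation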 (primary screen)
System: mouse RAW264.7 G9 macrophage reporter cells (GFP-p65, Tnf promoter-mCherry)
Knock-down reagent: siRNA pool against mouse genes, 100 nM
Timing: 2 days siRNA transfection, then 40 min LPS before fixation
Conditions: LPS (Salmonella minnesota R595) at 10 ng/ml
Read-out: 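Imaged p65 nuclear translocation ratio, normalised to the plate median, converted to robust z-scores and averaged across two replicates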
Reading the numbers: p65 translocation robust z-score: higher = more nuclear NF-kappaB p65 after LPS than the plate median; nuclear/cytoplasmic p65 ratio: higher = more nuclear NF-kappaB p65
Rule for the call: 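Called active when z exceeds 3.3 or falls under -1.56 (median of Tlr4 controls), giving activity score of at least 50; no calls for control wells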
Meaning of the calls: active = hit (p65 shift raised or lowered); inactive = no clear change

gene	pool no.	p65 translocation robust z-score	nuclear/cytoplasmic p65 ratio, rep 1	nuclear/cytoplasmic p65 ratio, rep 2	low cell count flag	outcome
Arln (allregulin)	1		1.29	1.18	fewer than 50 cells per well; well left out of scoring	inactive
Fibp	1	-0.77	1.31	1.29	enough cells to score	inactive
Jkampl (JNK1/MAPK8 associated membrane protein like)	1		1.15	1.21	fewer than 50 cells per well; well left out of scoring	inactive
Or4c100 (olfactory receptor family 4 subfamily C member 100)	1	-0.69	1.55	1.48	enough cells to score	inactive
Pnma3 (paraneoplastic antigen MA3)	1		1.19	1.01	fewer than 50 cells per well; well left out of scoring	inactive
Thnsl1 (threonine synthase-like 1 (bacterial))	1	0.79	1.81	1.45	enough cells to score	inactive
F10 (coagulation factor X)	1	0.21	1.54	1.36	enough cells to score	inactive
Otog (otogelin)	1	1.33	1.51	1.49	enough cells to score	inactive
Sap30l (SAP30-like)	1	0.05	1.63	1.61	enough cells to score	inactive
Dppa3 (developmental pluripotency-associated 3)	1		1.26	1.39	fewer than 50 cells per well; well left out of scoring	inactive
Gata2 (GATA binding protein 2)	1	0.88	1.52	1.52	enough cells to score	inactive
Fthl17e (ferritin, heavy polypeptide-like 17, member E)	1	-0.27	1.63	1.36	enough cells to score	inactive
Myh6 (myosin, heavy polypeptide 6, cardiac muscle, alpha)	1	0.34	1.38	1.49	enough cells to score	inactive
Gadd45a (growth arrest and DNA-damage-inducible 45 alpha)	1	-0.75	1.39	1.22	enough cells to score	inactive
E030024N20Rik (RIKEN cDNA E030024N20 gene)	1	-0.75	1.4	1.24	enough cells to score	inactive
Syt12 (synaptotagmin XII)	1	0.32	1.55	1.23	enough cells to score	inactive
Srd5a3 (steroid 5 alpha-reductase 3)	1	-0.13	1.28	1.22	enough cells to score	inactive
Synm (synemin, intermediate filament protein)	1	0.26	1.51	1.38	enough cells to score	inactive
Kcnu1 (potassium channel, subfamily U, member 1)	1	-0.2	1.49	1.43	enough cells to score	inactive
Elk1 (ETS transcription factor ELK1)	1	-0.14	1.26	1.34	enough cells to score	inactive
Or6k8 (olfactory receptor family 6 subfamily K member 8)	1	0.23	1.41	1.3	enough cells to score	inactive
Plk5 (polo like kinase 5)	1		1.34	1.43	fewer than 50 cells per well; well left out of scoring	inactive
Ppp6r3 (protein phosphatase 6, regulatory subunit 3)	1	0.45	1.72	1.53	enough cells to score	inactive
Zfp868 (zinc finger protein 868)	1	0.9	1.71	1.85	enough cells to score	inactive
Ttpa (tocopherol (alpha) transfer protein)	1	-0.03	1.48	1.52	enough cells to score	inactive
Grin1 (glutamate receptor, ionotropic, NMDA1 (zeta 1))	1	0.19	1.49	1.37	enough cells to score	inactive
Fgf8 (fibroblast growth factor 8)	1	-0.4	1.37	1.33	enough cells to score	inactive

An excerpt of the results above, for reference:
gene	pool no.	p65 translocation robust z-score	nuclear/cytoplasmic p65 ratio, rep 1	nuclear/cytoplasmic p65 ratio, rep 2	low cell count flag	outcome
Arln (allregulin)	1		1.29	1.18	fewer than 50 cells per well; well left out of scoring	inactive
Fibp	1	-0.77	1.31	1.29	enough cells to score	inactive
Jkampl (JNK1/MAPK8 associated membrane protein like)	1		1.15	1.21	fewer than 50 cells per well; well left out of scoring	inactive
Or4c100 (olfactory receptor family 4 subfamily C member 100)	1	-0.69	1.55	1.48	enough cells to score	inactive
Pnma3 (paraneoplastic antigen MA3)	1		1.19	1.01	fewer than 50 cells per well; well left out of scoring	inactive
Thnsl1 (threonine synthase-like 1 (bacterial))	1	0.79	1.81	1.45	enough cells to score	inactive
F10 (coagulation factor X)	1	0.21	1.54	1.36	enough cells to score	inactive
Otog (otogelin)	1	1.33	1.51	1.49	enough cells to score	inactive
Sap30l (SAP30-like)	1	0.05	1.63	1.61	enough cells to score	inactive

Continued:
gene	pool no.	p65 translocation robust z-score	nuclear/cytoplasmic p65 ratio, rep 1	nuclear/cytoplasmic p65 ratio, rep 2	low cell count flag	outcome
Slc28a2	1	0.77	1.4	1.35	enough cells to score	inactive
Sppl2a (signal peptide peptidase like 2A)	1		1.44	1.49	fewer than 50 cells per well; well left out of scoring	inactive
Pink1 (PTEN induced putative kinase 1)	1	-0.44	1.71	1.24	enough cells to score	inactive
Ptpa (protein phosphatase 2 protein activator)	1	0.21	1.5	1.46	enough cells to score	inactive
Arhgap27 (Rho GTPase activating protein 27)	1	-0.51	1.26	1.43	enough cells to score	inactive
Arhgap27 (Rho GTPase activating protein 27)	2	-2.01	1.1	1.11	enough cells to score	active
Or4c109 (olfactory receptor family 4 subfamily C member 109)	1	-2.11	1.42	1.19	enough cells to score	active
Kansl2 (KAT8 regulatory NSL complex subunit 2)	1		1.26	1.6	fewer than 50 cells per well; well left out of scoring	inactive
Cdk17 (cyclin dependent kinase 17)	1	0.11	1.66	1.39	enough cells to score	inactive
Galnt6 (polypeptide N-acetylgalactosaminyltransferase 6)	1	-1.19	1.4	1.34	enough cells to score	inactive
Aqp5 (aquaporin 5)	1	-1.18	1.47	1.41	enough cells to score	inactive
Fbxo7 (F-box protein 7)	1	-0.25	1.45	1.32	enough cells to score	inactive
Phf8 (PHD finger protein 8)	1	1.56	1.59	1.42	enough cells to score	inactive
Mrpl21 (mitochondrial ribosomal protein L21)	1	-0.94	1.4	1.73	enough cells to score	inactive
Mrgprb1 (MAS-related GPR, member B1)	1	1.14	1.99	1.74	enough cells to score	inactive
Ccne2 (cyclin E2)	1	0.3	1.42	1.42	enough cells to score	inactive
Nat8f5 (N-acetyltransferase 8 (GCN5-related) family member 5)	1	0.44	1.65	1.87	enough cells to score	inactive
Eif2s3x	1		1.18	1.06	fewer than 50 cells per well; well left out of scoring	inactive
Svopl (SV2 related protein homolog (rat)-like)	1		1.29	1.42	fewer than 50 cells per well; well left out of scoring	inactive
Cbx4 (chromobox 4)	1	-0.67	1.38	1.28	enough cells to score	inactive
Zfp867 (zinc finger protein 867)	1	-0.79	1.5	1.49	enough cells to score	inactive
Bdh2 (3-hydroxybutyrate dehydrogenase, type 2)	1	-0.22	1.52	1.54	enough cells to score	inactive
Dsp (desmoplakin)	1		1.43	1.35	fewer than 50 cells per well; well left out of scoring	inactive
6430571L13Rik (RIKEN cDNA 6430571L13 gene)	1	0.32	1.47	1.65	enough cells to score	inactive
Aar2 (AAR2 splicing factor homolog)	1	0.12	1.48	1.54	enough cells to score	inactive
Lamc1 (laminin, gamma 1)	1	-0.72	1.38	1.28	enough cells to score	inactive
Lrrfip1 (leucine rich repeat (in FLII) interacting protein 1)	1		1.52	1.18	fewer than 50 cells per well; well left out of scoring	inactive
Mtg1 (mitochondrial ribosome-associated GTPase 1)	1		1.04	1.57	fewer than 50 cells per well; well left out of scoring	inactive
Dnah8 (dynein, axonemal, heavy chain 8)	1	1.51	1.72	1.5	enough cells to score	inactive
Cx3cr1 (C-X3-C motif chemokine receptor 1)	1	-0.75	1.39	1.48	enough cells to score	inactive
Timp2 (tissue inhibitor of metalloproteinase 2)	1	0.14	1.5	1.57	enough cells to score	inactive
Arhgap20 (Rho GTPase activating protein 20)	1	1.41	1.7	1.82	enough cells to score	inactive
